# From PubChem BioAssay AID2551 (National Center for Advancing Translational Sciences (NCATS), 2010)
# Chains of the proteins cited; added tags and fusions are not shown. Lines headed by an entry give the natural chain unless they say otherwise; changes in a name come on top.
# UniProt P51450: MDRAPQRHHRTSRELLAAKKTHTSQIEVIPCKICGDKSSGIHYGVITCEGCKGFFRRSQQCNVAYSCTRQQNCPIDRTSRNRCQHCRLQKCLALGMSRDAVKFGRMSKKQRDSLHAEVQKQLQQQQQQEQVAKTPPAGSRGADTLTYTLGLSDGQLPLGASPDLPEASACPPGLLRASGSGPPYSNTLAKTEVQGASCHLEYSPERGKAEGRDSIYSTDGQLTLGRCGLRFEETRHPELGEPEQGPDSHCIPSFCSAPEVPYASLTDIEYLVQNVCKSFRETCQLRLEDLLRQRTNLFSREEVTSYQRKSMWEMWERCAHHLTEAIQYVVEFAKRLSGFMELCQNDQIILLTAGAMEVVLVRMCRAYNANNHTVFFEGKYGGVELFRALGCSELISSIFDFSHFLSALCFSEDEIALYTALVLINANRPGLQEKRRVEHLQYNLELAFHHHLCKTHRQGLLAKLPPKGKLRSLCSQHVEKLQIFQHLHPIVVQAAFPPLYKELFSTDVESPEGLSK
# Hit rate of the full screen: of about 310,000 compounds, about 17,000 (5.5%) were called active. The inconclusive results got no clear call from the source; some entries with a clear call stand among them for comparison. Calls come from the whole dose curve; as a rule, active = well fitted inhibition curve with a large enough effect; inconclusive = small, poorly fitted or top-dose-only effect, or effect the other way; inactive = no such curve, though single readings can be large or run the other way. Where the call is inconclusive, the potency comes from a doubtful curve fit.
# Target: Nuclear receptor ROR-gamma (Mus musculus) (UniProt P51450)
# Assay: qHTS for inhibitors of ROR gamma transcriptional activity; note: nearly all actives have a fitted effect of over 60% in size
# Conditions: Drosophila S2 Gal4-RORgamma UAS-luciferase reporter, 20 h; activity change, negative = inhibition: at 53.6 µM (top of the series)
# How it was run: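 ROR gamma transcriptional activity was tracked as Gal4-UAS luciferase output in stably transfected Drosophila Schneider cells, with compound added 1 hr before 700 uM copper sulfate induction and a 20 hr ambient-temperature incubation.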
# % is set by controls: 0 for no effect and ±100 for the full control effect; potency is the fitted concentration of half-maximal effect.
Compound,"activity change, negative = inhibition",Potency
COc1ccc(-c2csc(NC(=O)CSc3ccc(Br)cc3)n2)c(OC)c1,inactive: -3.1%,
Cc1ccc(-n2cc(-c3ccccc3)c3c(NN4CCOCC4)ncnc32)cc1,,"inconclusive: 6.31 µM [inhibitor, single point]"
COc1ccc(Cl)cc1NS(=O)(=O)c1ccc(S(=O)(=O)N2CCCC2)cc1,,"inconclusive: 14.1 µM [activator, single point]"
CN(C)c1ccc(C2CC(c3ccccc3)=Nc3nc(-c4ccccc4)cn32)cc1 (stereo not drawn),,"inconclusive: 35.5 µM [inhibitor, single point]"
CC(C)(C)C(=O)Nc1nnc(CCc2ccccc2)s1,,"inconclusive: 20 µM [inhibitor, single point]"
CCC(=O)Nc1ccc(-c2ccc(N3CCCCC3)nn2)cc1,,active: 4.47 µM
Nc1ccc(C(=O)N/N=C/c2cn(Cc3ccc(F)cc3)c3ccccc23)cc1,inactive: -142%,
CCOc1ccc(N(CC(=O)Nc2cc(C)ccc2C)S(=O)(=O)c2c(C)[nH]c(=O)[nH]c2=O)cc1,inactive: -1.42%,
O=c1cnc2cnc(N3CCOCC3)nc2n1Cc1cccs1,inactive: 3.64%,
CC1C(=O)C(C)C(c2cc(Cl)ccc2O)NC1c1cc(Cl)ccc1O (stereo not drawn),,"inconclusive: 28.2 µM [inhibitor, single point]"
O=C(NCCCc1ccc(F)cc1)C1CCC(=O)N(CC2CCCCC2)C1 (stereo not drawn),inactive: 21.8%,
CCOC(=O)/C(=C\c1ccc([N+](=O)[O-])cc1)C(=O)c1cc(C(C)=O)c(Nc2ccccc2)s1,,"inconclusive: 11.2 µM [inhibitor, partial curve]"
Nc1sc2c(c1C(=O)NCCc1ccccc1)CCC2,inactive: 17.9%,
Cc1cc(/C=C(/C#N)c2nc3ccccc3[nH]2)c(C)n1-c1ccccc1C(=O)O,inactive: 11.3%,
Cc1cccc(NC(=O)Cn2nnc(-c3cccs3)n2)c1C,inactive: -31.3%,
Cc1ccc(S(=O)(=O)N2c3ccccc3OCC2C(C)(C)C)cc1 (stereo not drawn),,"inconclusive: 31.6 µM [activator, single point]"
Cc1cccc(C2CC3(CC(C)(C)NC(=S)N3)Oc3cc(O)ccc32)c1 (stereo not drawn),,active: 10 µM
Cc1ccc2c(c1)c1c3n2CCN(CC(N)=O)C3CCC1 (stereo not drawn),inactive: 29.3%,
CC1CCN(S(=O)(=O)c2ccc(NC(=O)C3CCN(C(=O)c4ccco4)CC3)cc2)CC1,,"inconclusive: 20 µM [activator, partial curve]"

Compound,"activity change, negative = inhibition",Potency
Cc1ccc(C(=O)Nc2ccc(C(=O)O)cc2NC(=O)c2ccc(C)cc2)cc1,,"inconclusive: 11.2 µM [inhibitor, single point]"
O=C(NNC1=C(C(=O)C(F)(F)F)CCC1)c1ccc(Br)cc1,,"inconclusive: 35.5 µM [inhibitor, single point]"
O=C(Nc1nnc(C2CC2)s1)C1Cc2ccccc2CN1S(=O)(=O)c1cccs1 (stereo not drawn),,active: 1.41 µM
O=C(Nc1c(C(=O)c2ccccc2)oc2ccccc12)c1cc(-c2ccccc2O)n[nH]1,,"inconclusive: 35.5 µM [inhibitor, single point]"
CC(=O)N1CCN(c2nnc(-c3ccc(C)cc3)c3ccccc23)CC1,inactive: 27%,
CCOc1ccc(-n2c(=O)c3sccc3n(Cc3cccc([N+](=O)[O-])c3)c2=O)cc1,,"inconclusive: 0.708 µM [inhibitor, single point]"
COC(=O)c1ccc(C(NC(=O)OCc2ccccc2)/C(=C/[C@@H](C)C(=O)N(C)Cc2ccccc2)c2cccnc2)cc1 (stereo partly drawn),inactive: 35.4%,
O=C(CN1CCCc2ccccc21)N/N=C/c1ccc(O)cc1O,,"inconclusive: 17.8 µM [inhibitor, partial curve, poor fit]"
Cn1c(C2=C(O)CN(c3ccccc3)C2=N)nc2ccccc21,inactive: -1.51%,
CC(=O)N(CCc1cccc(C)c1)Cc1cc2ccc(C)cc2[nH]c1=O,,"inconclusive: 12.6 µM [activator, single point]"
O=C(Nc1ccccc1)C1=C(O)CC(c2ccc(Cl)cc2)N2CCN=C12 (stereo not drawn),,"inconclusive: 14.1 µM [activator, partial curve]"
COc1ccc(C(O)(CC(C)C)C(CN2CCOCC2)c2ccccc2)cc1 (stereo not drawn),,"inconclusive: 15.8 µM [activator, single point]"
COc1cc(C2CC(=O)Oc3cc(C)c(Br)c(C)c32)cc(OC)c1OC (stereo not drawn),,"inconclusive: 39.8 µM [inhibitor, single point]"
CN1/C(=C\C(=O)c2cccc(S(=O)(=O)N3CCCCC3)c2)C(C)(C)c2ccccc21,,"inconclusive: 3.16 µM [activator, partial curve]"
CCc1c(C)nc(SCC(N)=O)c(C#N)c1C,,"inconclusive: 6.31 µM [inhibitor, single point]"
Cc1cccc(/C(N)=N/OC(=O)c2ccccc2Cl)c1,,active: 0.251 µM
CCCN1/C(=C2/SC(=S)N(CC)C2=O)C=Cc2ccccc21,inactive: -3.94%,
Cc1cc(=O)oc2cc(OCC(=O)NCCc3c[nH]c4ccc(F)cc34)ccc12,inactive: -0.529%,
O=C(CN1C(=O)C2C3C=CC(C3)C2C1=O)Nc1ccc2c(c1)OCCO2 (stereo not drawn),,"inconclusive: 0.0398 µM [activator, full curve, poor fit]"

# Gathered by group: the entries above with a COOH group (2)
Compound,"activity change, negative = inhibition",Potency
Cc1cc(/C=C(/C#N)c2nc3ccccc3[nH]2)c(C)n1-c1ccccc1C(=O)O,inactive: 11.3%,
Cc1ccc(C(=O)Nc2ccc(C(=O)O)cc2NC(=O)c2ccc(C)cc2)cc1,,"inconclusive: 11.2 µM [inhibitor, single point]"
